PubChem BioAssay AID1259302 – Sanger Institute – 2017

- Assay: 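Kinase knock-downs that raise cell killing by three anchor cancer drugs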 (follow-up of hits)
- Cell system: human SW1116 colorectal cancer cells
- Knock-down reagent: single siRNA against human genes
- Challenge: anchor drugs BYL719 at 1 µM, cetuximab at 5 µg/ml or trametinib at 10 nM, each compared with DMSO vehicle; exposure time not given
- Measured: 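Viability relative to a pooled non-targeting control siRNA, averaged over replicates; for each anchor drug a synergy score weighs the joint effect against siRNA and drug alone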
- Scale: synergy score with trametinib and synergy score with BYL719 and synergy score with cetuximab: higher = stronger synthetic lethal interaction with the drug
- Hit rule: 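Active means a synergy score over 0.10 with any one of the three anchor drugs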
In all, the deposit lists 160 reagents; this is a part drawn at random. 122 of them (76%) were called active. 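Most active calls come from the trametinib arm; viability under BYL719 or cetuximab treatment is not printed.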 Unmarked entries are inactive. The numbers tell different reagents against one gene apart. Not all columns of the deposit are shown. Not given: the amount of reagent, the time to read-out.

| gene | reagent | synergy score with trametinib | synergy score with BYL719 | synergy score with cetuximab |
| --- | --- | --- | --- | --- |
| CDK6 | 1 | 0.182 (active) | -0.0967 | 0.166 |
| CDK6 | 2 | 0.313 (active) | -0.0484 | 0.167 |
| CDK6 | 3 | 0.222 (active) | -0.095 | 0.018 |
| CDK6 | 4 | 0.295 (active) | 0.00215 | 0.204 |
| SF3B1 | 1 | -0.0403 | -0.117 | -0.0349 |
| SF3B1 | 2 | 0.0519 | -0.0472 | 0.0219 |
| SF3B1 | 3 | 0.105 (active) | 0.0453 | 0.0372 |
| SF3B1 | 4 | 0.00604 | -0.0994 | -0.0115 |
| HSPB8 | 1 | 0.214 (active) | -0.0907 | 0.0124 |
| HSPB8 | 2 | 0.0794 | -0.0381 | 0.0611 |
| HSPB8 | 3 | -0.00582 | -0.152 | -0.116 |
| HSPB8 | 4 | 0.0831 | -0.14 | -0.307 |
| CSNK2A2 | 1 | 0.294 (active) | 0.0136 | 0.0203 |
| CSNK2A2 | 2 | 0.0686 | 0.0667 | 0.0507 |
| CSNK2A2 | 3 | 0.303 (active) | 0.0426 | 0.143 |
| CSNK2A2 | 4 | 0.193 (active) | -0.0293 | 0.105 |
| GTF2H1 | 1 | 0.199 (active) | 0.0232 | -0.0452 |
| GTF2H1 | 2 | 0.0779 | 0.0275 | 0.0797 |
| GTF2H1 | 3 | 0.0795 | -0.107 | 0.036 |
| GTF2H1 | 4 | 0.191 (active) | 0.0403 | 0.0878 |
| ACVR1 | 1 | 0.00782 | -0.124 | -0.129 |
| ACVR1 | 2 | 0.181 (active) | -0.0176 | 0.163 |
| ACVR1 | 3 | 0.215 (active) | -0.124 | 0.0699 |
| ACVR1 | 4 | 0.262 (active) | -0.037 | 0.141 |
| IRAK1 | 1 | 0.257 (active) | 0.0342 | 0.0275 |
| IRAK1 | 2 | 0.151 (active) | 0.1 | 0.0633 |
| IRAK1 | 3 | 0.0232 (active) | -0.00385 | 0.101 |
| IRAK1 | 4 | 0.162 (active) | 0.219 | 0.107 |
| PIM1 | 1 | 0.145 (active) | -0.0101 | 0.16 |
| PIM1 | 2 | 0.141 (active) | -0.00181 | 0.0533 |
| PIM1 | 3 | -0.176 | -0.135 | -0.114 |
| PIM1 | 4 | 0.136 (active) | -0.01 | 0.092 |
| PIK3CA | 1 | 0.217 (active) | 0.157 | 0.165 |
| PIK3CA | 2 | 0.136 (active) | 0.00801 | 0.0104 |
| PIK3CA | 3 | 0.303 (active) | 0.1 | -0.285 |
| PIK3CA | 4 | 0.13 (active) | -0.0628 | 0.161 |
